These are yes or no findings as the source states them, for the method shown. Binding can be weak; no strength is given. No end group written: not given here.
Assays:
Experiment in all cases: ELISA, histone coated on the plate, 5 ug/mL antibody, absorbance at 405 nm
[1] = target: histone H2A
[2] = target: histone H3
[3] = target: histone H2B
[4] = target: histone H1

Measured: binding

B1: monoclonal antibody (SSVmAb) of Example 1, produced by Mouse-Mouse hybridoma SSV-C 93-3 (antibody, IgG1, V domains shown)
VH: EIQLQQSGAELVKPGASVKISCKASGYSFTGYNMNWVKQSHGKSLEWIGNINPYYGSTSYNQKFKGKATLTVDKSSSTAYMQLNSLTSEDSAVYYCARSPYYSNYWRYFDYWGQGTTLTVSS
VL: QIVLSQSPAILSASPGEKVTMTCRASSSVSYMHWYQQKPGSSPKPWIYATSNLASGVPARFSGSGSGTSYSLTISRVEAEDAATYYCQQWSSNPWTFGGGTKLEIK
notes: Mouse monoclonal antibody purified from hybridoma culture supernatant; light chain amplified with a mouse kappa constant region primer
binds: all assays above
